Some of the results follow.
Legend:
Test in all cases: log2 fold change, soluble protein after heating vs DMSO (PISA); higher = thermal stabilisation; K562 lysate, 10 uM; active = over 0.2 and 3.5 SD of the protein, either way, in both replicates (recomputed)
lapatinib = compound: CS(=O)(=O)CCNCc1ccc(-c2ccc3ncnc(Nc4ccc(OCc5cccc(F)c5)c(Cl)c4)c3c2)o1 [lapatinib]
Method in brief: (§1)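 Pellets of K562 cells were dounce-homogenised in PBS pH 7.4 with 1 mM MgCl2, and the crude extract was held at 1 mg/mL protein for a 30 min treatment with 10 μM compound. Aliquots were heated for 3 min over 48°C-58°C and pooled before NP-40 was added to 0.5% at 4°C. The supernatant from 21,000xg for 90 min was quantified by TMTpro 16plex LC-MS/MS with channel sums equalised. Values are reported from duplicates as log-two fold change in thermal stability relative to solvent controls.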

Sequences of proteins named here, by UniProt entry; tags and fusion partners are left off. A change or cut given only in a name is not applied to a line headed by its entry.
UniProt Q9BQS7: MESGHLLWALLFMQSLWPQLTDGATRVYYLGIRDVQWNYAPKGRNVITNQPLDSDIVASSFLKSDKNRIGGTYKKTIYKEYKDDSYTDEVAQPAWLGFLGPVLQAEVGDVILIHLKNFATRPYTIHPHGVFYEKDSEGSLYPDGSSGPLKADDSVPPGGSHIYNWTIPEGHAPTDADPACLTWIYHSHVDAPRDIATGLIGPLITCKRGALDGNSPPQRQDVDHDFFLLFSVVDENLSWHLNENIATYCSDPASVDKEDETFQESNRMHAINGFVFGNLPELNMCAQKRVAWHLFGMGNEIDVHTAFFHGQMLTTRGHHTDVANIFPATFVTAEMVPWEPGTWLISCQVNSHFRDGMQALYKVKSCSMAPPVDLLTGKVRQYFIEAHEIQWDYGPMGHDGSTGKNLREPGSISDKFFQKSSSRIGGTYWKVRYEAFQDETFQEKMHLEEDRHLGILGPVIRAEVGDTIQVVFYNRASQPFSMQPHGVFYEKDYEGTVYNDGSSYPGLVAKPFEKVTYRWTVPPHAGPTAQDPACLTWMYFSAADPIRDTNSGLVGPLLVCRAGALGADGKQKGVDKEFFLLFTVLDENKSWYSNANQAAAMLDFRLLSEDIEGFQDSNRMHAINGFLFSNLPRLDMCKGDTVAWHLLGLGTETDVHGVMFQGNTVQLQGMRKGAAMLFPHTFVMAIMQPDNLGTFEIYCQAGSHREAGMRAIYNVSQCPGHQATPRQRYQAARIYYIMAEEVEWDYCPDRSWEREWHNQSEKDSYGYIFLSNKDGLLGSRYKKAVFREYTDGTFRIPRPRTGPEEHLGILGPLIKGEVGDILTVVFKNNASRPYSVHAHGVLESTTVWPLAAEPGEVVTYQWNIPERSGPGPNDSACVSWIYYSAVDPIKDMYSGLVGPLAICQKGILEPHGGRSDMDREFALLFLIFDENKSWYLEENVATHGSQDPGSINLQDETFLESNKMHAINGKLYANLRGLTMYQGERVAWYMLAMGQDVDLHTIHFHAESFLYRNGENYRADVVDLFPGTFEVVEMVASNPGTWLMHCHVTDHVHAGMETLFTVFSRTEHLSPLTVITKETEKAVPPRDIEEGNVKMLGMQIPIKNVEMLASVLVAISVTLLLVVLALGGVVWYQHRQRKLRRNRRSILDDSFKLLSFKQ
UniProt P09651: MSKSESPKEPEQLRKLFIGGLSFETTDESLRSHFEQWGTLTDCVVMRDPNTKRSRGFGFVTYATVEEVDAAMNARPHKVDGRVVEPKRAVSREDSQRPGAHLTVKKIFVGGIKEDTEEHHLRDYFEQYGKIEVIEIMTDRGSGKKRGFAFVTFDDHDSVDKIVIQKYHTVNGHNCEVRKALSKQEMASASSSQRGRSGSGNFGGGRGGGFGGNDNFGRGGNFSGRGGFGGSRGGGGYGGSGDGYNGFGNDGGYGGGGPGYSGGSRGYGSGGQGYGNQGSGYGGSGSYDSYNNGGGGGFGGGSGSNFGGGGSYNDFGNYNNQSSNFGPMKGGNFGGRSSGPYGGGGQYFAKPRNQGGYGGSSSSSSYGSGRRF
UniProt Q8TCT9: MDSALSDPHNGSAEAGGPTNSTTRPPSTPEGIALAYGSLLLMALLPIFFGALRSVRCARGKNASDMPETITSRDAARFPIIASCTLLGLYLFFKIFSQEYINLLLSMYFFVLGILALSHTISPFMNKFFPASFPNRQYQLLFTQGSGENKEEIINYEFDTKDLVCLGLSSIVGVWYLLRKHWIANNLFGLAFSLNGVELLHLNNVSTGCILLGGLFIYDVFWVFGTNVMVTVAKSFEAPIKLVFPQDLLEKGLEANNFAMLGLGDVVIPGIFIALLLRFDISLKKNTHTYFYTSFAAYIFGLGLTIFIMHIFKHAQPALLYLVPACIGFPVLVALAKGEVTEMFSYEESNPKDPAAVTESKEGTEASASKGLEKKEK
UniProt O95757: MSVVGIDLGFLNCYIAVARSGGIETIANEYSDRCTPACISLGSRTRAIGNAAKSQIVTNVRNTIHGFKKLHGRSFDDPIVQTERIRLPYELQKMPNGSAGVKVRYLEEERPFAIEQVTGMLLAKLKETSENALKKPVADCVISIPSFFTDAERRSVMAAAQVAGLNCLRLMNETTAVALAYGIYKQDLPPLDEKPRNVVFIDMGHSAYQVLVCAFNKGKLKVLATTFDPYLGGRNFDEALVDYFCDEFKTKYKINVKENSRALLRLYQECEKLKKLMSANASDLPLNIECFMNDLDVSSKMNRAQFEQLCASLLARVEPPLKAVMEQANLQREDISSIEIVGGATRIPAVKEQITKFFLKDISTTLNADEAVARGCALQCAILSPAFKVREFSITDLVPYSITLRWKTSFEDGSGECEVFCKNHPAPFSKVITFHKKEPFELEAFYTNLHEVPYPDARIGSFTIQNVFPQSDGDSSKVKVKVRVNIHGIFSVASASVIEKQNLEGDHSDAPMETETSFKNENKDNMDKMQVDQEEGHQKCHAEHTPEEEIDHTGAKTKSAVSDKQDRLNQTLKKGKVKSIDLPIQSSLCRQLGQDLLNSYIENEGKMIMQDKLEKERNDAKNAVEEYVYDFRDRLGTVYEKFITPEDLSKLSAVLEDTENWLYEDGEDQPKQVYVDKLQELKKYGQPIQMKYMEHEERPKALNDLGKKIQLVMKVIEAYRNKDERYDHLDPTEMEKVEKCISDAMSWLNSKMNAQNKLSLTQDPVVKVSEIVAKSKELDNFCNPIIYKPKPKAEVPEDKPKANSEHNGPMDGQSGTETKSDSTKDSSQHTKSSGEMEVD
UniProt Q99729: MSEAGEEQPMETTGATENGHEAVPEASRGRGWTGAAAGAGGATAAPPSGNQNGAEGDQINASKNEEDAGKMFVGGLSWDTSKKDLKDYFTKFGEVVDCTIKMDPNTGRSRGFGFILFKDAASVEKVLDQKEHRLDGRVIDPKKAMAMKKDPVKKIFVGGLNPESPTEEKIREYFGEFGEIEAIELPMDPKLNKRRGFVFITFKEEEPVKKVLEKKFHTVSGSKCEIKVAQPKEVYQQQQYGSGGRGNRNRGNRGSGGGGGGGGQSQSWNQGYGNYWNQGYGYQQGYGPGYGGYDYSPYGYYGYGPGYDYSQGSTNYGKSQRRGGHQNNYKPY
UniProt Q8WVV9: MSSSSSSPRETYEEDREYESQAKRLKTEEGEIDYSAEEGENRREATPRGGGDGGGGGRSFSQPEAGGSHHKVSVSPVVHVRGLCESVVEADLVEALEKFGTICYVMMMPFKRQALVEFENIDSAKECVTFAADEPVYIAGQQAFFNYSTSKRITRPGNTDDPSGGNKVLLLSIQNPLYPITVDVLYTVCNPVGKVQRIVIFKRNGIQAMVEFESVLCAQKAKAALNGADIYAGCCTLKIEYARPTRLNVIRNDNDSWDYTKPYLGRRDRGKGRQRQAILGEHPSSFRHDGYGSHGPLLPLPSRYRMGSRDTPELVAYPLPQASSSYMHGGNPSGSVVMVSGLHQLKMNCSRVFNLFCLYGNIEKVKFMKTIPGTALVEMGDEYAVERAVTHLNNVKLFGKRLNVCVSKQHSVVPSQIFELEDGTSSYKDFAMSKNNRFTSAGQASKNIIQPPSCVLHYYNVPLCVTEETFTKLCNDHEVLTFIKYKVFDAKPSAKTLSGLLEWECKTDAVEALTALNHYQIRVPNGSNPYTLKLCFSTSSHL
UniProt P17482: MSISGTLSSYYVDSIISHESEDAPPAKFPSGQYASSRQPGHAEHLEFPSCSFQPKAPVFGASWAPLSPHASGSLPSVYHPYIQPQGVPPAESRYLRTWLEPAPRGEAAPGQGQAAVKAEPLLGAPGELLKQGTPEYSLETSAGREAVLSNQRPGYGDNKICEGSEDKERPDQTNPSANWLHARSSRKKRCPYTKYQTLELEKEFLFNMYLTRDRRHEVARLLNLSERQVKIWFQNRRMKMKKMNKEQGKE
UniProt P17096: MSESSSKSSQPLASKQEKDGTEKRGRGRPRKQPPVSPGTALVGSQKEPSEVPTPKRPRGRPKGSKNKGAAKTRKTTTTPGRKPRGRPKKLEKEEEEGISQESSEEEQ
UniProt Q96FZ2: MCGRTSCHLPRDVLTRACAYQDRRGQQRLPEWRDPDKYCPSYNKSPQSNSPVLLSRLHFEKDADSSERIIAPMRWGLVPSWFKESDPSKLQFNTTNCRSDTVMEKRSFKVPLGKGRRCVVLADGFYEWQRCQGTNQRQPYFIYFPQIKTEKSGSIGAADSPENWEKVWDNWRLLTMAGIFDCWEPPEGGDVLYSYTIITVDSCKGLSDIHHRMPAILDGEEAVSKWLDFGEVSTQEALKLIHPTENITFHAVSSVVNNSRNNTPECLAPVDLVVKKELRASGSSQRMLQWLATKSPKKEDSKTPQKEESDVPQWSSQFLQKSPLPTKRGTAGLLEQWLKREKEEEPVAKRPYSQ
UniProt P31943: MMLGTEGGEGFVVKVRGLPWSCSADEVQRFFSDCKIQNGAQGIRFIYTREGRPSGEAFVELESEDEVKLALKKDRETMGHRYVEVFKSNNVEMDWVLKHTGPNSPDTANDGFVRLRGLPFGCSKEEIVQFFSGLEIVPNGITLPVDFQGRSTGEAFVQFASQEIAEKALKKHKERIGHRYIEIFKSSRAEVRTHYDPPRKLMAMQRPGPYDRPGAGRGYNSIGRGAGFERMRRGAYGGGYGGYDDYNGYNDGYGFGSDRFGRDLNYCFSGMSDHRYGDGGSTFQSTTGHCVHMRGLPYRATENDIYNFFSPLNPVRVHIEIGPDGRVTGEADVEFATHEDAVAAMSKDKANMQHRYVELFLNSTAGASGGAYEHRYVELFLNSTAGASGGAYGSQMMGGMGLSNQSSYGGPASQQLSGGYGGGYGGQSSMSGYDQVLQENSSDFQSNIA
UniProt P07910: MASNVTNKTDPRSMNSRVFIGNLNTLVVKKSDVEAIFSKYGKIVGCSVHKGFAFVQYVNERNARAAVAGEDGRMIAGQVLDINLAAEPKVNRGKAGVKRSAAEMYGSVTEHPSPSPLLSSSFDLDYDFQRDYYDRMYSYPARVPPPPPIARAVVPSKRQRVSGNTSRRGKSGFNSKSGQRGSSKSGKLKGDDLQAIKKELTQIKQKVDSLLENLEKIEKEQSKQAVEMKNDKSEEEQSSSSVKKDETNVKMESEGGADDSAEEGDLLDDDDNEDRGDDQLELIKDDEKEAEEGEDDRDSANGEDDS
UniProt P0DMV8, whole entry, looked up: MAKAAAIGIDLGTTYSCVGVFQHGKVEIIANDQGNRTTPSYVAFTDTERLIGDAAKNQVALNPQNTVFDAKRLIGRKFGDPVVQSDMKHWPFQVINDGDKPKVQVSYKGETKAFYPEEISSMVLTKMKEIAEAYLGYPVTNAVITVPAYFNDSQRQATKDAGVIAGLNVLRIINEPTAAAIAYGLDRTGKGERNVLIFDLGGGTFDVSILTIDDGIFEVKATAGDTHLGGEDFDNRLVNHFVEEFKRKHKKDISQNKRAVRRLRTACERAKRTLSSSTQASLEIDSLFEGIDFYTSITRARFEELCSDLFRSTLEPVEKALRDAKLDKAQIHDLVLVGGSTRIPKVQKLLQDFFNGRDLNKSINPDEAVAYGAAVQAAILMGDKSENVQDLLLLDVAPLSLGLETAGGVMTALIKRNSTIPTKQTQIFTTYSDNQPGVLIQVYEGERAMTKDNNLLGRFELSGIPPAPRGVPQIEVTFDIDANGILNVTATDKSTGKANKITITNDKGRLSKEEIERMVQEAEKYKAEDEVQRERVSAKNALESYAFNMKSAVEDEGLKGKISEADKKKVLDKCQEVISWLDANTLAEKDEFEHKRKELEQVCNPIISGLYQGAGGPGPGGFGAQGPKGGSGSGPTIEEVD
UniProt P14625, whole entry, looked up: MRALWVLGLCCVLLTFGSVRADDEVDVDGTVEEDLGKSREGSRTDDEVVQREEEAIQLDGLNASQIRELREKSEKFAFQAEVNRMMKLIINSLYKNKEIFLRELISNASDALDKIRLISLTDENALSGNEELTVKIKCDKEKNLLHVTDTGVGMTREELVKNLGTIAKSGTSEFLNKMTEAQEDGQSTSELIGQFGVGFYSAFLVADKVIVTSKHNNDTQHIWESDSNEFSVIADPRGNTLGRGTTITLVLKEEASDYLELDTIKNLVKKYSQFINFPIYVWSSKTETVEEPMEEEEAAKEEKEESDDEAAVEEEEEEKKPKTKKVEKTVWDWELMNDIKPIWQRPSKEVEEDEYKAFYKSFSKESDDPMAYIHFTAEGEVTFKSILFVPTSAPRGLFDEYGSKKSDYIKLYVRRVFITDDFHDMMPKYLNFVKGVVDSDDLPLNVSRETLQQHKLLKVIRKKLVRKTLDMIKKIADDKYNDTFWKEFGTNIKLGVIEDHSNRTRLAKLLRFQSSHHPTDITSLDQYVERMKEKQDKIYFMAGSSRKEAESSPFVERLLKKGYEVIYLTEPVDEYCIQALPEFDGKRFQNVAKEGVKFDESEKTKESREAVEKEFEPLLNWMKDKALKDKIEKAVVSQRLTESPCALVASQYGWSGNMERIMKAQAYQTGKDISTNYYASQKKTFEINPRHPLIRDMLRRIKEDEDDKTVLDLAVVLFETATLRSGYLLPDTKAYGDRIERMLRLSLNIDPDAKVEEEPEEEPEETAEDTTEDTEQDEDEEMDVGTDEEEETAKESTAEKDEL

pictilisib = compound: CS(=O)(=O)N1CCN(Cc2cc3nc(-c4cccc5[nH]ncc45)nc(N4CCOCC4)c3s2)CC1 [pictilisib]
Method in brief: as §1

crizotinib = compound: C[C@@H](Oc1cc(-c2cnn(C3CCNCC3)c2)cnc1N)c1c(Cl)ccc(F)c1Cl [crizotinib]
Method in brief: as §1

[1] = compound: C[C@H](C1=CC=C(C=C1)C(=O)NC2=C3C=CNC3=NC=C2)N
Method in brief: as §1

duvelisib = compound: C[C@H](Nc1ncnc2nc[nH]c12)c1cc2cccc(Cl)c2c(=O)n1-c1ccccc1 [duvelisib]
Method in brief: as §1

gandotinib = compound: Cc1cc(Nc2cc(CN3CCOCC3)c3nc(C)c(Cc4ccc(Cl)cc4F)n3n2)n[nH]1 [gandotinib]
Method in brief: as §1

tozasertib = compound: Cc1cc(Nc2cc(N3CCN(C)CC3)nc(Sc3ccc(NC(=O)C4CC4)cc3)n2)n[nH]1 [tozasertib]
Method in brief: as §1

doramapimod = compound: Cc1ccc(-n2nc(C(C)(C)C)cc2NC(=O)Nc2ccc(OCCN3CCOCC3)c3ccccc23)cc1 [doramapimod]
Method in brief: as §1

bafetinib = compound: Cc1ccc(NC(=O)c2ccc(CN3CC[C@H](N(C)C)C3)c(C(F)(F)F)c2)cc1Nc1nccc(-c2cncnc2)n1 [bafetinib]
Method in brief: as §1

[2] = compound: Cc1cccc(CC(=O)N2CCc3c2ccc(-c2cn(C)c4ncnc(N)c24)c3F)n1
Method in brief: as §1

nilotinib = compound: Cc1cn(-c2cc(NC(=O)c3ccc(C)c(Nc4nccc(-c5cccnc5)n4)c3)cc(C(F)(F)F)c2)cn1 [nilotinib]
Method in brief: as §1

[3] = compound: Cc1nc(Nc2n[nH]c3c2CN(C(=O)N[C@H](CN(C)C)c2ccccc2)C3(C)C)c2sccc2n1
Method in brief: as §1

dasatinib = compound: Cc1nc(Nc2ncc(C(=O)Nc3c(C)cccc3Cl)s2)cc(N2CCN(CCO)CC2)n1 [dasatinib]
Method in brief: as §1

[4] = compound: Cc1ncc(-c2ccnc(Nc3ccc(S(C)(=O)=O)cc3)n2)n1C(C)C
Method in brief: as §1

[5] = compound: Cn1cc(-c2ccc3c(c2)CCN3C(=O)Cc2cccc(C(F)(F)F)c2)c2c(N)ncnc21
Method in brief: as §1

quisinostat = compound: Cn1cc(CNCC2CCN(c3ncc(C(=O)NO)cn3)CC2)c2ccccc21 [quisinostat]
Method in brief: as §1

tipifarnib = compound: Cn1cncc1[C@@](N)(c1ccc(Cl)cc1)c1ccc2c(c1)c(-c1cccc(Cl)c1)cc(=O)n2C [tipifarnib]
Method in brief: as §1

[6] = compound: NC(=O)Nc1cc(-c2cccc(F)c2)sc1C(=O)N[C@H]1CCCNC1
Method in brief: as §1

[7] = compound: NC(=O)c1cnc(N[C@@H]2CCCC[C@@H]2N)nc1Nc1cccc(-n2nccn2)c1
Method in brief: as §1

[8] = compound: NC1(c2ccc(-c3nc4ccn5c(=O)[nH]nc5c4cc3-c3ccccc3)cc2)CCC1
Method in brief: as §1

Measured: log2 fold change

HEPH isoform 3 (UniProt Q9BQS7)
inactive: lapatinib -0.007 | pictilisib 0.009 | crizotinib -0.008 | [1] -0.023 | duvelisib -0.008 | gandotinib 0.02 | tozasertib 0.048 | doramapimod 0.001 | bafetinib -0.079 | [2] 0.031 | nilotinib -0.047 | [3] -0.023 | dasatinib -0.047 | [4] 0.033 | [5] 0.009 | quisinostat 0.002 | tipifarnib -0.042 | [6] -0.002 | [7] 0.034 | [8] -0.022

HNRNPA1 (UniProt P09651)
inactive: lapatinib -0.02 | pictilisib -0.026 | crizotinib 0.003 | [1] 0.116 | duvelisib 0.004 | gandotinib -0.038 | tozasertib -0.017 | doramapimod -0.031 | bafetinib 0.102 | [2] 0.006 | nilotinib -0.002 | [3] -0.057 | dasatinib 0.027 | [4] 0.001 | [5] 0.023 | quisinostat 0.019 | tipifarnib 0.011 | [6] 0.007 | [7] -0.003 | [8] 0.005

HM13 isoform 2 (UniProt Q8TCT9)
inactive: lapatinib 0.016 | pictilisib -0.004 | crizotinib -0.004 | [1] -0.063 | duvelisib 0.018 | gandotinib 0.018 | tozasertib 0.002 | doramapimod 0.016 | bafetinib -0.017 | [2] 0.015 | nilotinib 0.003 | [3] -0.013 | dasatinib -0.024 | [4] 0 | [5] -0.053 | quisinostat -0.037 | tipifarnib -0.028 | [6] -0.016 | [7] -0.026 | [8] -0.012

HECTD1 (UniProt Q9ULT8)
inactive: lapatinib 0.014 | pictilisib -0.039 | crizotinib -0.031 | [1] 0.005 | duvelisib 0.015 | gandotinib -0.029 | tozasertib 0.013 | doramapimod 0.031 | bafetinib -0.047 | [2] 0.074 | nilotinib -0.008 | [3] 0.032 | dasatinib -0.021 | [4] -0.006 | [5] 0.032 | quisinostat -0.041 | tipifarnib -0.004 | [6] 0.01 | [7] 0.03 | [8] 0.007

HSPA4L (UniProt O95757)
inactive: lapatinib 0.013 | pictilisib -0.009 | crizotinib 0.016 | [1] -0.016 | duvelisib -0.001 | gandotinib 0.002 | tozasertib -0.011 | doramapimod -0.008 | bafetinib -0.002 | [2] 0.027 | nilotinib -0.026 | [3] -0.006 | dasatinib 0.001 | [4] 0.012 | [5] -0.007 | quisinostat -0.006 | tipifarnib 0.003 | [6] 0.002 | [7] -0.002 | [8] -0.01

HNRNPAB isoform 3 (UniProt Q99729)
inactive: lapatinib 0.007 | pictilisib 0.01 | crizotinib 0.04 | [1] -0.068 | duvelisib -0.009 | gandotinib 0.019 | tozasertib -0.02 | doramapimod -0.058 | bafetinib -0.002 | [2] 0.033 | nilotinib -0.012 | [3] 0.026 | dasatinib 0.022 | [4] 0.024 | [5] -0.028 | quisinostat 0.026 | tipifarnib 0.006 | [6] 0 | [7] -0.005 | [8] 0.012

2 neighbouring entries already listed, for reference:
HSPA4L (UniProt O95757)
inactive: lapatinib 0.013 | pictilisib -0.009 | crizotinib 0.016 | [1] -0.016 | duvelisib -0.001 | gandotinib 0.002 | tozasertib -0.011 | doramapimod -0.008 | bafetinib -0.002 | [2] 0.027 | nilotinib -0.026 | [3] -0.006 | dasatinib 0.001 | [4] 0.012 | [5] -0.007 | quisinostat -0.006 | tipifarnib 0.003 | [6] 0.002 | [7] -0.002 | [8] -0.01

HNRNPAB isoform 3 (UniProt Q99729)
inactive: lapatinib 0.007 | pictilisib 0.01 | crizotinib 0.04 | [1] -0.068 | duvelisib -0.009 | gandotinib 0.019 | tozasertib -0.02 | doramapimod -0.058 | bafetinib -0.002 | [2] 0.033 | nilotinib -0.012 | [3] 0.026 | dasatinib 0.022 | [4] 0.024 | [5] -0.028 | quisinostat 0.026 | tipifarnib 0.006 | [6] 0 | [7] -0.005 | [8] 0.012

Following part.

HNRNPLL (UniProt Q8WVV9)
inactive: lapatinib 0.017 | pictilisib -0.026 | crizotinib -0.038 | [1] -0.01 | duvelisib -0.016 | gandotinib -0.031 | tozasertib 0 | doramapimod 0.01 | bafetinib -0.031 | [2] 0.027 | nilotinib -0.031 | [3] 0.009 | dasatinib -0.019 | [4] 0.008 | [5] -0.001 | quisinostat -0.063 | tipifarnib -0.008 | [6] 0.001 | [7] 0.015 | [8] -0.013

HOXB9 (UniProt P17482)
inactive: lapatinib -0.001 | pictilisib 0 | crizotinib -0.156 | [1] -0.017 | duvelisib -0.121 | gandotinib 0.152 | tozasertib -0.112 | doramapimod 0.02 | bafetinib -0.198 | [2] -0.008 | nilotinib -0.014 | [3] -0.077 | dasatinib 0.009 | [4] 0 | [5] 0.054 | quisinostat -0.124 | tipifarnib 0.002 | [6] 0.101 | [7] 0.016 | [8] -0.055

HMGA1 (UniProt P17096)
inactive: lapatinib -0.023 | pictilisib 0.03 | crizotinib 0.007 | [1] -0.27 | duvelisib 0.058 | gandotinib 0.069 | tozasertib -0.062 | doramapimod -0.02 | bafetinib 0.043 | [2] 0.036 | nilotinib 0.035 | [3] 0.039 | dasatinib -0.012 | [4] 0.014 | [5] -0.08 | quisinostat -0.018 | tipifarnib 0.032 | [6] -0.004 | [7] -0.025 | [8] -0.059

HMCES (UniProt Q96FZ2)
inactive: lapatinib -0.017 | pictilisib 0.025 | crizotinib -0.05 | [1] -0.023 | duvelisib 0.013 | gandotinib 0.004 | tozasertib 0.067 | doramapimod 0.033 | bafetinib 0.004 | [2] 0.046 | nilotinib -0.01 | [3] -0.023 | dasatinib -0.067 | [4] -0.073 | [5] -0.026 | quisinostat -0.092 | tipifarnib -0.021 | [6] 0.064 | [7] -0.005 | [8] -0.007

HIST2H2BF isoform 2 (UniProt Q5QNW6)
inactive: lapatinib -0.004 | pictilisib 0.023 | crizotinib -0.024 | [1] 0.014 | duvelisib -0.023 | gandotinib -0.018 | tozasertib 0.01 | doramapimod -0.025 | bafetinib -0.02 | [2] -0.054 | nilotinib 0 | [3] -0.07 | dasatinib -0.006 | [4] -0.069 | [5] -0.025 | quisinostat 0 | tipifarnib 0.031 | [6] 0.022 | [7] -0.009 | [8] 0.003

HOMER1 (UniProt Q86YM7)
inactive: lapatinib -0.043 | pictilisib -0.039 | crizotinib 0.026 | [1] 0.072 | duvelisib -0.006 | gandotinib -0.002 | tozasertib -0.058 | doramapimod 0.024 | bafetinib 0.043 | [2] -0.069 | nilotinib 0.007 | [3] 0.003 | dasatinib 0.003 | [4] -0.022 | [5] 0 | quisinostat 0.049 | tipifarnib -0.008 | [6] -0.035 | [7] -0.001 | [8] 0.014

HNRNPH1 (UniProt P31943)
inactive: lapatinib 0.023 | pictilisib -0.016 | crizotinib -0.02 | [1] -0.018 | duvelisib 0.012 | gandotinib 0.006 | tozasertib -0.036 | doramapimod 0.043 | bafetinib -0.027 | [2] 0.006 | nilotinib -0.04 | [3] -0.006 | dasatinib -0.02 | [4] 0.016 | [5] -0.007 | quisinostat -0.084 | tipifarnib -0.035 | [6] 0.018 | [7] -0.005 | [8] -0.04

HNRNPC (UniProt P07910)
inactive: lapatinib 0.018 | pictilisib 0.004 | crizotinib -0.011 | [1] 0.171 | duvelisib 0.051 | gandotinib -0.071 | tozasertib -0.012 | doramapimod -0.021 | bafetinib -0.077 | [2] 0.01 | nilotinib -0.028 | [3] -0.034 | dasatinib -0.038 | [4] -0.015 | [5] 0.023 | quisinostat 0.016 | tipifarnib 0.029 | [6] -0.004 | [7] -0.005 | [8] 0.008

HSPA1A (UniProt P0DMV8)
inactive: lapatinib -0.001 | pictilisib 0.029 | crizotinib 0.012 | [1] 0.201 | duvelisib 0.022 | gandotinib -0.085 | tozasertib 0.024 | doramapimod -0.002 | bafetinib 0.077 | [2] -0.078 | nilotinib -0.009 | [3] 0.018 | dasatinib 0.012 | [4] -0.004 | [5] 0.002 | quisinostat 0.012 | tipifarnib 0.01 | [6] -0.011 | [7] 0.006 | [8] -0.006

HSP90B1 (UniProt P14625)
inactive: lapatinib -0.001 | pictilisib 0.022 | crizotinib 0.031 | [1] 0.028 | duvelisib -0.004 | gandotinib -0.012 | tozasertib -0.001 | doramapimod -0.043 | bafetinib 0.018 | [2] -0.048 | nilotinib 0.004 | [3] -0.01 | dasatinib 0.029 | [4] -0.005 | [5] -0.001 | quisinostat 0.046 | tipifarnib -0.008 | [6] -0.019 | [7] -0.007 | [8] 0.006

Source: the supplement of paper PMC10849652
